Values quoted from earlier work as cited in patent US11213486B2, “Drug-containing fat emulsion and nethod for producing same” (Techno Guard Co. Ltd., priority 2017, dated 2022).

Conditions: of the drug contained in the emulsion

Solubility in water (expression in Japanese Pharmacopoeia) | SMILES
Practically insoluble | COc1ccc2c(c1)c(CC(=O)O)c(C)n2C(=O)c1ccc(Cl)cc1 [Indometacin, indometacin]
Practically insoluble | C=CC[C@@H]1/C=C(\C)C[C@H](C)C[C@H](OC)[C@H]2O[C@@](O)(C(=O)C(=O)N3CCCC[C@H]3C(=O)O[C@H](/C(C)=C/[C@@H]3CC[C@@H](O)[C@H](OC)C3)[C@H](C)[C@@H](O)CC1=O)[C@H](C)C[C@@H]2OC [Tacrolimus, tacrolimus]
